The other results are listed elsewhere or left out. Shown are side measurements of this screen, not its main read-out; they come without a call. Most of these compounds were active or inconclusive in the main read-out, so they are no random draw. For some of these results: Words in brackets tell the shape of the fitted curve; partial curves, single points and poor fits give uncertain potencies.
Columns and labels:
[1] = qHTS for identification of novel therapeutic agents for treatment of microphthalmiaassociated transcription factor (MiT) renal cell carcinoma (RCC) (AID 1963991); settings: CellTiter-Glo, 48 h; for z-score: stronger effect = lower value
Method in brief: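 Viability of three TFE3-fusion renal carcinoma lines measured by CellTiter-Glo after 48 h treatment with each of 1912 compounds at 11 concentrations. Responses scaled between DMSO (100%) and empty wells (0%) before curve fitting.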

[2] = Nrf2 qHTS screen for inhibitors: Validation (AID 493153); settings: A549 ARE-Fluc reporter, 18-24 h; AC50: CellTiter-Fluor fluorescence read, measured here: cytotoxicity CellTiter-Fluor AC50; viability change: measured here: cytotoxicity max response
Method in brief: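 Concentration-response on A549 ARE_Fluc reporter cells exposed 18-24 h at 37 C, 5% CO2. Cytotoxicity read first by CellTiter-Fluor fluorescence (Ex 405/Em 525), then Nrf2 inhibition by BugLite luminescence after 15 min.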

[3] = qHTS assay for small molecule antagonists of androgen receptor signaling (AID 588516); settings: AR-UAS-bla HEK293, beta-lactamase ratio, antagonist mode, 16 h; measured here: W460 blue channel fit
Method in brief: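 Cells were plated and incubated 5 h, compounds added in titration, then R1881 (10 nM final) as agonist. After 16 h at 37 C, CCF4 substrate was loaded for 2 h at room temperature and fluorescence measured.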

[4] = qHTS assay for small molecule antagonists of peroxisome proliferator-activated receptor delta signaling (AID 588535); settings: HEK293T PPARd-UAS-bla, beta-lactamase FRET ratio, 18 h; 460 nm channel;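 further: cells co-treated with a PPAR-delta agonist as stimulator during compound exposure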
Method in brief: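 Titrations were run on PPAR-delta-UAS-bla HEK293T cells in charcoal/dextran-stripped serum, incubated 18 h at 37 C. CCF4 fluorescence (460/530 nm) after 2 h RT; Hill equation yields IC50 and maximal response.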

[5] = qHTS assay for small molecule antagonists of peroxisome proliferator-activated receptor gamma signaling (AID 588537); settings: HEK293 PPARg-UAS-bla, beta-lactamase ratio, antagonist mode; measured here: W460 blue channel
Method in brief: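 Antagonist-mode β-lactamase reporter screen run as a titration series. HEK293 PPARγ-UAS-bla cells are stimulated with rosiglitazone (50 nM final) for 16 h, then CCF4 is read at 460/530 nm. Data are scaled between DMSO and rosiglitazone and fitted to the Hill equation.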

[6] = qHTS assay for small molecule antagonists of vitamin D receptor signaling (AID 588541); settings: HEK293T VDR-UAS-bla, beta-lactamase ratio, antagonist mode; measured here: W460 blue channel (cell viability)
[7] = qHTS assay for small molecule agonists of retinoid X receptor alpha signaling (AID 588544); settings: HEK293T RXRa-UAS-bla, beta-lactamase reporter, 18 h; 530 nm emission
[8] = qHTS assay for small molecule antagonists of retinoid X receptor alpha signaling (AID 588546); settings: HEK293T RXRa-UAS-bla, beta-lactamase ratio, antagonist mode; measured here: W530 green channel, cytotoxicity proxy;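 further: cells stimulated with 9-cis-retinoic acid as agonist; on the % scale 0 is the no-effect control and ±100 the full control effect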
Method in brief: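 Beta-lactamase reporter inhibition, read as CCF4 fluorescence ratio (ex 405, em 460/530 nm) after 2 h at RT. HEK293T UAS-bla cells, 2500/well, were stimulated with 9-cis-RA at 500 or 100 nM final alongside test compound for 18 h at 37 C.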

[9] = qHTS Assay for Modulators of Human Peripheral Myelin Protein 22 (PMP22) Expression/Activity (AID 1967); settings: Cell-based PMP22 reporter, dual-color luciferase ratio
Method in brief: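 MSC80 mouse Schwann cells stably carrying Pmp22 promoter–green click beetle luciferase plus EF-alpha–red luciferase control were dosed for 24h at 37 °C. Dual-colour luminescence was filter-overlap corrected; %Activity came from green/red ratio versus untreated cells.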

[10] = qHTS Validation Assay to Find Inhibitors of Chronic Active B-Cell Receptor Signaling (AID 485345); settings: ABC-DLBCL cells, chronic BCR signaling reporter
Method in brief: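 Read-out: ratio of filter-corrected green (IkappaBalpha fusion) to red (native) luciferase signal in doxycycline-induced TMD8 cells after 4 h at 37C. Titration spanned 46 uM–3 nM; Data were normalised to basal cells and 10 uM MG-132 wells.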

[11] = S16 Schwann cell PMP22 intronic element beta-lactamase assay (AID 624044); settings: S16 rat Schwann cells, PMP22 element beta-lactamase FRET, 24 h; measured here: 460 nm blue channel
Method in brief: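 Beta-lactamase reporter under a PMP22 intronic regulatory element in stable S16 rat Schwann cells; 24 h compound exposure. 460 nm blue signal normalized between DMSO (0%) and potassium clavulanate, with 535 nm FRET tracking viability; curves classed by r2 and response.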

[12] = qHTS Assay for Inhibitors of PDE-IV (AID 607); settings: HEK293 ACTOne CNG channel cells, membrane potential fluorescence; measured here: parental cell counter-screen
Method in brief: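 Live HEK293 cells with a modified cyclic nucleotide-gated (CNG) channel report intracellular cAMP via membrane-potential dye fluorescence (ex 535/em 590 nm). Endogenous PDE-IV was targeted. Compounds were tested at up to 22.9 uM final; RO 20-1724 100 uM served as control.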

[13] = TFE3-RCC UOK109 viability, measured here: UOK109 Z-AUC
[14] = TFE3-RCC viability, measured here: UOK124 Z-AUC
[15] = TFE3-RCC viability, measured here: UOK124 cell viability
[16] = TFE3-RCC viability, measured here: UOK145 Z-AUC
[17] = TFE3-RCC viability, measured here: UOK145 cell viability
[18] = measured here: red reporter channel AC50, EF-alpha promoter control reporter in MSC80 mouse Schwann cells

O=C1NC(=O)C(=Cc2ccc(-c3ccc(F)cc3O)o2)S1
z-score [1, 13]: 0.644
z-score [1, 14]: -0.173
AC50 [1, 15]: 14.8 µM [falling, partial curve, poor fit]
z-score [1, 16]: 0.329
AC50 [1, 17]: 8.33 µM [falling, partial curve, poor fit]

C[C@H]1O[C@@H](n2cc(F)c(=O)[nH]c2=O)[C@H](O)[C@H]1O
viability change [2]: -1.68%
z-score [1, 13]: 0.712
z-score [1, 14]: 1.03
z-score [1, 16]: 0.357
AC50 [1, 17]: 20.9 µM [falling, partial curve, poor fit]

CC(C=CC1=C(C)CCCC1(C)C)=CC=CC(C)=CC(=O)Nc1ccc(O)cc1
AC50 [3]: 39.8 µM [falling, partial curve]
max response [4]: -45.8%
AC50 [5]: 39.8 µM [falling, partial curve, poor fit]
AC50 [6]: 28.2 µM [falling, partial curve]
max response [7]: -52.4%
max response [8]: -50.2%
z-score [1, 13]: -0.437
z-score [1, 14]: -0.138
AC50 [1, 15]: 34 µM [falling, partial curve]
z-score [1, 16]: -0.0176
AC50 [1, 17]: 54 µM [falling, partial curve]

O=C(N[C@H](CO)[C@H](O)c1ccc([N+](=O)[O-])cc1)C(Cl)Cl
AC50 [5]: 79.4 µM [rising, single point]
max response [7]: -11.5%
z-score [1, 13]: -4.51
z-score [1, 14]: 0.731
z-score [1, 16]: -1.03
AC50 [1, 17]: 0.469 µM [rising, full curve]

C=CCc1cccc(C=NNC(=O)CN2CCN(Cc3ccccc3)CC2)c1O
viability change [2]: -13.2%
z-score [1, 13]: -0.0786
z-score [1, 14]: 0.221
AC50 [1, 15]: 4.69 µM [falling, full curve]
z-score [1, 16]: -0.0521
AC50 [1, 17]: 16.6 µM [falling, partial curve]

Cc1oncc1C(=O)Nc1ccc(C(F)(F)F)cc1
AC50 ([9]; measured here: green reporter channel AC50, mouse Pmp22 promoter in mouse Schwann cells): 8.49 µM [rising, partial curve, poor fit]
AC50 [9, 18]: 37.9 µM [falling, full curve]
AC50 ([10]; measured here: CBG/CBR ratio read-out): 18.4 µM [falling, partial curve]
AC50 ([10]; measured here: CBR control luciferase (viability counter)): 10.3 µM [falling, partial curve]
AC50 [11]: 0.6 µM [falling, full curve, poor fit]
z-score [1, 13]: 0.459
z-score [1, 14]: 0.036
z-score [1, 16]: -0.136
AC50 [1, 17]: 18.7 µM [falling, partial curve, poor fit]

Cc1[nH]c(=O)c(C#N)cc1-c1ccc2nccn2c1
AC50 [9, 18]: 75.7 µM [falling, partial curve]
z-score [1, 13]: 0.465
z-score [1, 14]: -0.433
AC50 [1, 15]: 0.00148 µM [rising, full curve, poor fit]
z-score [1, 16]: -0.133

CC[C@H](C)C(=O)O[C@H]1C[C@@H](C)C=C2C=C[C@H](C)[C@H](CC[C@@H]3C[C@@H](O)CC(=O)O3)[C@H]21
max response [4]: 20%
max response [8]: -9.55%
z-score [1, 13]: -0.0335
z-score [1, 14]: -0.101
AC50 [1, 15]: 4.69 µM [falling, full curve]
z-score [1, 16]: 0.00401
AC50 [1, 17]: 14.8 µM [falling, partial curve, poor fit]

Cc1cc(NS(=O)(=O)c2ccc(N)cc2)no1
AC50 [5]: 70.8 µM [rising, single point]
z-score [1, 13]: 1.21
z-score [1, 14]: 0.935
AC50 [1, 15]: 0.00105 µM [falling, full curve, poor fit]
z-score [1, 16]: 1.65

CCC1=C[C@@H]2CN(C1)Cc1c([nH]c3ccccc13)[C@@](C(=O)OC)(c1cc3c(cc1OC)N(C)[C@@H]1[C@@](O)(C(=O)OC)[C@H](OC(C)=O)[C@]4(CC)C=CCN5CC[C@]31[C@@H]54)C2
AC50 [11]: 2.24 µM [falling, full curve, poor fit]
z-score [1, 13]: -0.605
z-score [1, 14]: -0.834
AC50 [1, 15]: 0.372 µM [falling, full curve]
z-score [1, 16]: -1
AC50 [1, 17]: 0.418 µM [falling, full curve]

N#CC(=C(N)Sc1ccccc1N)C(C#N)=C(N)Sc1ccccc1N
z-score [1, 13]: -1.48
z-score [1, 14]: -0.209
AC50 [1, 15]: 5.26 µM [falling, partial curve, poor fit]
z-score [1, 16]: -0.524
AC50 [1, 17]: 23.5 µM [falling, single point]

O=S(=O)(O)c1ccc2cc(N=Nc3cc(S(=O)(=O)O)c4cccnc4c3O)ccc2c1
AC50 [12]: 0.000398 µM [falling, full curve, poor fit]
z-score [1, 13]: 0.138
z-score [1, 14]: 0.648
AC50 [1, 15]: 14.8 µM [falling, partial curve, poor fit]
z-score [1, 16]: 0.638
AC50 [1, 17]: 18.7 µM [falling, partial curve, poor fit]

CC12CC3CC(C)(C1)CC(N)(C3)C2
AC50 [9, 18]: 84.9 µM [falling, single point]
AC50 [11]: 25.1 µM [falling, partial curve, poor fit]
z-score [1, 13]: -0.362
z-score [1, 14]: 0.467
z-score [1, 16]: 0.124
AC50 [1, 17]: 23.5 µM [falling, partial curve]

From PubChem BioAssay (NCATS)
